Test results: patent US5543498A, “Peptides to overcome inhibition of nerve growth” (The General Hospital Corporation, priority 1995, dated 1996)
Part of at least one peptide drawing is inferred or uncertain, most often the ends. No end group written: not given here.

Tested on: Chick dorsal root ganglion (DRG) neurons
Format: cell-based
Description: Chick DRGs from embryonic day 7 (E7) were explanted onto laminin-coated chamber slides in F12 medium with 10 ng/ml nerve growth factor and 10% fetal bovine serum. After 20 hours, peptide solutions or phosphate-buffered saline (PBS) in 1 mM DTT was added to the explants (225 μl) and the mixture incubated at 27° C. for one hour. BME, prepared following the procedure of J. A. Raper and J. P. Kapfhammer, Neuron 2:21 (1990), was added to the explants and incubated for 30 minutes. For each explant, all growth cones were scored as collapsed or fan-shaped (M. Igarashi et al., Science 259:77 (1993)).
In another series of experiments the GAP-43 1-10 peptide was added into the culture medium at 10^-8 M one hour prior to the addition of BME. After 30 minutes incubation with BME, the explant was fixed in glutaraldehyde and its growth cones were scored.
After exposing the PTX treated neurons to BME and the GAP-43 1-10, the amount of growth cone collapse was measured.
The procedure described in Example 2 was followed with the exception that one hour prior to the addition of BME (0.15 mg protein/ml) to the DRG culture medium, either the methionine or tyrosine mutant peptide was introduced at a concentration of 10^-4 M.

Sequence: MLMMMRRTKQ [peptide-M, [3M, 4M] GAP43 (1-10)]
- shift of BME dose response: BME needed to cause 50% collapse (DRG, 10^-4 M peptide, relative to no peptide): about twice
- effect of the peptides by themselves on growth cones (doses used for the BME dose response (FIG. 3C)): do not have any evident effect by themselves
